PubChem BioAssay AID1159584, Peter MacCallum Cancer Centre | 2016
Assay: 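Knock-downs that harm CDH1-null cells more than parental MCF10A cells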 (primary screen). System: human MCF10A breast epithelial cells, parental and CDH1-null. Knock-down reagent: siRNA against human genes. Measured: 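Cell viability by CellTiter-Glo ATP luminescence, each line scaled to the mean of mock wells across plates, then CDH1-null over parental ratio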. Reading the numbers: CDH1-null / parental viability ratio: higher = CDH1-null cells survive relatively better than parental.
The deposit covers about 18,000 reagents; this is a random part of them. Not all columns of the deposit are shown. Not stated in the record: the amount of reagent, the time to read-out.

target gene,CDH1-null / parental viability ratio
KCNJ5-AS1 (GeneID 219833),1.02
DENND4C (GeneID 55667),0.84
CENPK (GeneID 64105),0.89
CAPSL (GeneID 133690),1.32
RIPK4 (GeneID 54101),1.13
PGA5 (GeneID 5222),1.15
NLK (GeneID 51701),0.73
PITHD1 (GeneID 57095),0.73
ADAM33 (GeneID 80332),1.33
LARGE1 (GeneID 9215),0.74
SPRN (GeneID 503542),0.77
DEFB4A (GeneID 1673),1.3
CARD11 (GeneID 84433),0.86
CYP3A43 (GeneID 64816),0.91
MIR1915HG (GeneID 399726),0.95
ATP2A2 (GeneID 488),1.17
GOLGA8B (GeneID 440270),0.92
OR5A1 (GeneID 219982),1.2
HOXA1 (GeneID 3198),0.88
ITSN2 (GeneID 50618),0.72
IL1RAPL1 (GeneID 11141),0.93
PDE7A (GeneID 5150),0.98
FABP3 (GeneID 2170),0.97
TRIM43 (GeneID 129868),0.98
PCDHAC1 (GeneID 56135),1.17
STIP1 (GeneID 10963),1.13
SMARCD2 (GeneID 6603),1.54
GLYATL2 (GeneID 219970),0.88
PVRIG (GeneID 79037),0.79
IFTAP (GeneID 119710),0.73
SLC25A44 (GeneID 9673),0.72
OLFM2 (GeneID 93145),0.76
KCNQ2 (GeneID 3785),1.48
CD99L2 (GeneID 83692),1
GRIK2 (GeneID 2898),1.16
CLC (GeneID 1178),0.9
EMC6 (GeneID 83460),1.19
OSBPL2 (GeneID 9885),1.23
CD59 (GeneID 966),1.4
C1orf87 (GeneID 127795),0.76
CBLN1 (GeneID 869),0.73
RNASEH2C (GeneID 84153),1.05
BARHL1 (GeneID 56751),1.23
DHX38 (GeneID 9785),0.88
CLEC14A (GeneID 161198),1.04
OLIG1 (GeneID 116448),1.59
SQOR (GeneID 58472),1.24
GTF2A1L (GeneID 11036),1.09
CFAP161 (GeneID 161502),0.65
QPCTL (GeneID 54814),0.84
SLC1A1 (GeneID 6505),0.75
PLD5 (GeneID 200150),0.99
TMED10 (GeneID 10972),0.94
CLMP (GeneID 79827),1.04
TLR10 (GeneID 81793),1.09
DCPS (GeneID 28960),1.23
RNFT1 (GeneID 51136),0.76
ELK3 (GeneID 2004),1.01
CYP26C1 (GeneID 340665),0.89
LILRA5 (GeneID 353514),0.98
ESD (GeneID 2098),1.01
PDRG1 (GeneID 81572),0.89
NFATC2IP (GeneID 84901),1.39
MTIF3 (GeneID 219402),0.69
SOS1 (GeneID 6654),0.94
KLHDC10 (GeneID 23008),1.02
SORCS2 (GeneID 57537),0.94
EPS8 (GeneID 2059),1.2

9 entries from above, set out differently:
target gene	CDH1-null / parental viability ratio
CARD11 (GeneID 84433)	0.86
CYP3A43 (GeneID 64816)	0.91
MIR1915HG (GeneID 399726)	0.95
ATP2A2 (GeneID 488)	1.17
GOLGA8B (GeneID 440270)	0.92
OR5A1 (GeneID 219982)	1.2
HOXA1 (GeneID 3198)	0.88
ITSN2 (GeneID 50618)	0.72
IL1RAPL1 (GeneID 11141)	0.93
